Among the data in article PMC6065441 are binding values, retold here.

For experiment [1], the target named is GNL1 full length, fusion with GAL4 DNA-DB/c-MYC (bait) (human) (UniProt P36915). Briefly: two-hybrid; clone A14/1 transformed again into AH109 yeast expressing GNL1, selection on SD X-α-Gal/-Ade/-His/-Leu/-Trp agar plates, blue colonies.
The target is the same in experiment [2]. Briefly: two-hybrid; library screen: GNL1 in pGBKT7 as bait, human leukocyte cDNA library in pAct2 as prey, AH109 yeast, selection on SD X-α-Gal/-Ade/-His/-Leu/-Trp, positive clones sequenced.

These are yes or no findings as the source states them, for the method shown. Some results given as binding are weak or reduced against the parent protein; the word gives no strength.

Take “RPS20 amino acids 41 to 119 (clone A14/1), fusion with GAL4-AD/HA (prey) (from UniProt P60866 41-119) (domain or fragment)”: the binding entry in experiment [1] and in experiment [2] was “binds” in each case.
